For at least one compound, name, drawing or mass did not settle the structure.
How the values were obtained:
LN-hPSCs [1] = experiment: Signaling pathways analysis, Real-Time PCR of marker expression; format: cell-based, human; conditions: medium depleted for FGF2, in the presence of the inhibitor, five days
Procedure: (§1) Signaling pathways analysis—hPSCs were cultured on LN111 for 2 days in complete medium, and then for additional 3-5 days in a medium+/−FGF2 in the presence of the following small molecules: PD032590 1 μM (Peprotech), LY294002 10 μM, SB431542 10 μM, CHIR99021 3 μM (all from Cayman Chemical, Michigan, USA), XAV939 2.5 μM (Peprotech), BMP4 50 ng/ml (Biogems-Peprotech).
Real Time PCR analysis—A relative gene expression quantitation assay was performed by amplification of 50 ng cDNA by Real Time PCR, using ABI Prism 7900HT Sequence Detection System (Applied Biosystems (ABI), Foster City, Calif.), specific TaqMan® Gene Expression Assays and TaqMan Fast Universal PCR master Mix. Human β-glucuronidase (gusB) or human β-actin (actB) were used as endogenous gene references. Data was analyzed using the RQ Manager Software v1.2 (ABI). […] Array data was analyzed using the DataAssist Software v2.0 (ABI). […]
Real Time PCR analysis—A relative gene expression quantitation assay was performed by amplification of 25-50 ng cDNA by Real-Time PCR, using ABI Prism 7900HT Sequence Detection System (Applied Biosystems (ABI), Foster City, Calif.), specific TaqMan® Gene Expression Assays and TaqMan® Fast Universal PCR Master Mix (All from Invitrogen). […] Data was analyzed using the RQ Manager Software v1.2 (ABI). […] Array data was analyzed using the DataAssist Software v2.0 (ABI).

LN-hPSCs [2] = experiment: Signaling pathways analysis, phase-contrast colony morphology; format: cell-based, human; conditions: medium depleted for FGF2, in the presence of the inhibitor, five days
Procedure: as §1
as §1, with “analysis-hPSCs” for “analysis—hPSCs”

In the case of `O=c1cc(N2CCOCC2)oc2c(-c3ccccc3)cccc12` [LY294002], the “Oct4 and Nanog expression levels” value (LN-hPSCs [1]) is reported as “significant down-regulation” and the “differentiation as evidenced by changes in cell morphology” value (LN-hPSCs [2]) is reported as “Differentiation was observed”.

Reference: patent US12467038B2, “Methods of culturing human pluripotent cells” (Hadasit Medical Research Services and Development Ltd., priority 2019, dated 2025)
